Assay results: PMC7314969, “Natural Transformation in Deinococcus radiodurans: A Genetic Analysis Reveals the Major Roles of DprA, DdrB, RecA, RecF, and RecO Proteins”
These are yes or no findings as the source states them, for the method shown. Some binding calls cover weakened binding; strength is not graded here.

How the values were obtained:
[1] = molecular target: Deinococcus radiodurans RecA, full length (D. radiodurans) (UniProt P42443); test: two-hybrid; yeast strain pJ69-4A; Gal4-AD fusions (pGAD-C1) and Gal4-BD fusions (pGBDU-C1); clones spotted as 1/5 dilutions on synthetic complete medium lacking leucine, uracil and histidine; 5 days at 28°C
[2] = molecular target: T1, Deinococcus radiodurans DdrB (D. radiodurans) (UniProt Q9RY80); test: as above
T1 sequence: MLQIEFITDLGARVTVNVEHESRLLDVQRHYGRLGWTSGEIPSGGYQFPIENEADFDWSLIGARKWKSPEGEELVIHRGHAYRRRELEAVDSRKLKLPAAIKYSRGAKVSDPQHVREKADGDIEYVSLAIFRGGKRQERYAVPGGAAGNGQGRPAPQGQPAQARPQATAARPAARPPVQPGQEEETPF

B1: Deinococcus radiodurans RecA, full length (protein, UniProt P42443 1-363)
chain: MSKDATKEISAPTDAKERSKAIETAMSQIEKAFGKGSIMKLGAESKLDVQVVSTGSLSLDLALGVGGIPRGRITEIYGPESGGKTTLALAIVAQAQKAGGTCAFIDAEHALDPVYARALGVNTDELLVSQPDNGEQALEIMELLVRSGAIDVVVVDSVAALTPRAEIEGDMGDSLPGLQARLMSQALRKLTAILSKTGTAAIFINQVREKIGVMYGNPETTTGGRALKFYASVRLDVRKIGQPTKVGNDAVANTVKIKTVKNKVAAPFKEVELALVYGKGFDQLSDLVGLAADMDIIKKAGSFYSYGDERIGQGKEKTIAYIAERPEMEQEIRDRVMAAIRAGNAGEAPALAPAPAAPEAAEA
[1]
  binding: binds

B2: Deinococcus radiodurans RecO (protein, UniProt Q9RW50 1-244)
chain: MRSRTANRSGIVIRRRVTPAGDIIVTLLTPQGKLKAIARGGVKGPLSSSLNLFHHVGVQVYQGPHNDLASVKQAVLEGALPTLAEPERYAFAHLMAEFADALFQEGEFSEQAFDLFAASLRGVAHQPDPEWVALVMSYKLLGLAGVIPQTARCARCGAPDPEHPDPLGGQLLCSKCAALPPYPPAVLDFLRHAVRRTVRASFEQPVPSADRPALWRALEKFVTVQVGGVHSWRQLVPSGVPVLS
[2]
  binding: no binding
